SMILES strings stand for the structures. “And” between values parts separate entries of the source, which are not always exact repeats. Identical values can stand only once. Further values from the same series stand in other lists.

The subject of this assay is GEMS receptors with CBPA11 (BclXL–LD3 and BclXLhigh variants), STAT3-driven SEAP in HEK293T cells. The assay is described as follows: GEMS SEAP reporter assay, CBPA11 (BclXLhigh, LD3-v and BclXL-v variants) with A-1155463. Particulars: for Normalized data (SEAP) / Raw data (SEAP): SuppFigure 9a; for SEAP, replicate values: Supplementary Figure 9e. Further details: key to SEAP, replicate values / Raw data (SEAP) / Raw data of Figure 5b: SEAP activity in U/L in culture supernatant. Format: cell-based. An excerpt:
To rationally design a CBP responding to a chemical input, we used BclXL as the druglow receptor, LD3 as the designed binder and a designed BclXL variant as the drughigh receptor (referred to as BclXLhigh) to construct a CBP responsive to BclXL inhibitors (Fig. 4a). To design BclXLhigh, we used a multistate design computational protocol described elsewhere[26] […] Thus, BclXLhigh-v(1–3) were chosen as the functional drughigh receptors, resulting in three A-1155463-controlled CBPs (referred to as CBPA11-v(1–3)) (Fig. 4c–e).
HEK293T cells were seeded in a 96-well plate 24 h before transfection. The transfection mix in each well consisted of 3 ng of constitutive human CMV promoter driven mammalian STAT3 expression vector (PhCMV-STAT3-pA), 30 ng of STAT3-induced reporter expression (OStat3-PhCMVmin-SEAP-pA) and 50 ng of expression vectors for each GEMS receptor chain (PSV40-IgK-(drughigh receptor)-EpoRm-IL-6RBm-pA and PSV40-IgK-(druglow receptor-GGGGSX3-LD3)-EpoRm-IL-6RBm-pA). For the specific drughigh receptor and druglow receptor used in the different cellular assays, they are indicated as wild type or with mutations. Then, plasmid DNA was mixed with 50 μl opti-MEM (Thermo Fisher) and 600 ng of polyethyleneimine (Polysciences, catalog no. 24765-1). For drug treatment experiments, drugs were added 12 h post-transfection and incubated with cells for 24 h before the SEAP reporter detection assay.
SEAP activity (U l^−1) in cell culture supernatants was quantified by kinetic measurements at 405 nm (1 minute per measurement for 30 cycles) of absorbance increase due to phosphatase-mediated hydrolysis of para-nitrophenyl phosphate (pNPP).
Binding affinities of SPR drug competition assays were calculated using three-parameter nonlinear regression in GraphPad Prism (v.8.3.0). Representative data of cell assays are presented as individual values and mean values (bars). n = 3 refers to biological replicates. All IC50 or EC50 values of cell assays reported were calculated using four-parameter nonlinear regression ± s.d. Bandpass features of cutoff concentrations and Bandwidth90% were estimated based on the curve fitted using bell-shaped curve nonlinear regression in GraphPad Prism (v.8.3.0). […]
Supplementary Figure 4: Design, screening and validation of BclXLhigh variants. a) Screening of BclXLhigh variants in the GEMS platform. […]
Dissociation constant measurement of BclXLhigh-v(1-3) and LD3. Equilibrium curves are fitted using […]
BclXLhigh-v1 (purple), BclXLhigh-v2 (blue), […]
a) Bcl2high-based bandpass filter designs were developed and to respond to different concentrations of […]
corresponding inhibitor. c) Screening of Bcl2high-based bandpass filter variants in the GEMS platform.
The designed binder LD3 was fused to the druglow-receptor (PSV40-IgK-Bcl2-LD3-EpoRm-IL-6RBm-pA) in one EpoR chain and Bcl2high variants with the insensitive Bcl2 (iBcl2) as control in the other EpoR chain (PSV40-IgK-Bcl2high-EpoRm-IL-6RBm-pA). HEK293T cells were transfected with indicated […]
the mean of six biological replicates ± s.d., overlaid with a scatter dot plot of the original data points.
(1 picture or pasted object on this page, not shown here)
Supplementary Figure 6: Binding affinities and drug resistances of Bcl2high-v(2,4,5) assessed by […]
a) Measurement of dissociation constants for Bcl2high-v(2,4,5) and LD3 interactions. Equilibrium curves […]
Bcl2high-v(2,4,5) measured by SPR. 5 μM of Bcl2 or indicated variants were mixed with 10 μM of […]
Bcl2high-v2 (red), Bcl2high-v4
Supplementary Figure 7: Screening of LD3 variants in CBPA11-v(1-3) and raw data of CBPA11-v(1,3) with LD3-v3 variant. a-c) Screening of LD3 and LD3-v(1-3) variants in complex with BclXL for more sensitive CBPA11-v1 (a), CBPA11-v2 (b), CBPA11-v3 (c) in the GEMS platform. The LD3 variants replaced the role of LD3 (PSV40-IgK-BclXL-LD3-v(1-3)-EpoRm-IL-6RBm-pA) in one EpoR chain and BclXLhigh-v(1-3) in the other EpoR chain (PSV40-IgK-BclXLhigh-V(1-3)-EpoRm-IL-6RBm-pA). HEK293T cells were transfected with […]
For orientation: In a reporter assay the amount or activity of a reporter protein is the signal.

As to `CN(C)CC#Cc1ccc(OCCCc2sc(N3CCc4cccc(C(=O)Nc5nc6ccccc6s5)c4C3)nc2C(=O)O)c(F)c1` [A-1155463], the “Normalized data Figure 5e” value (CBPA11-v3, A-1155463 10000 nM) is 13.1316 and 14.3664 and 15.957. The “Raw data of Figure 5b” value (CBPA11-v3-LD3v3, A-1155463 100 nM) was 93.696 and 106.99. Also, the “Normalized data (SEAP)” value reads like this: (BclXL-v1, A-1155463 10 nM) 17.6357; (BclXL-v1, A-1155463 31.6 nM) 27.0618; (BclXL-v2, A-1155463 10 nM) 37.2494; (BclXL-v2, A-1155463 31.6 nM) 81.2041; (BclXL-v3, A-1155463 10 nM) 48.7642; (BclXL-v3, A-1155463 31.6 nM) 43.9045. The “Normalized data (SEAP)” value turned out to be 44.3287 (BclXL, A-1155463 10 nM) and 68.2169 (BclXL, A-1155463 31.6 nM). Besides, the “Raw data (SEAP)” value (BclXL-v1, A-1155463 10 nM) is recorded as 16.9788; the “Raw data (SEAP)” value (BclXL-v1, A-1155463 31.6 nM) is recorded as 26.0537; the “Raw data (SEAP)” value (BclXL-v2, A-1155463 10 nM) was determined as 114.053; the “Raw data (SEAP)” value (BclXL-v2, A-1155463 31.6 nM) is on record as 248.637; the “Raw data (SEAP)” value (BclXL-v3, A-1155463 10 nM) is 4.698; the “Raw data (SEAP)” value (BclXL-v3, A-1155463 31.6 nM) was found to be 4.229. Also, the “Raw data (SEAP)” value reads like this: (BclXL, A-1155463 10 nM) 190.609; (BclXL, A-1155463 31.6 nM) 293.325. Further, the “SEAP, replicate values” was 80.3813 and 74.5359 and 94.7265 (CBPA11-v3-BclXLv2, A-1155463 10000 nM); 250.833 and 293.834 (CBPA11-v3, A-1155463 3180 nM); 69.4522 and 75.5808 and 84.1281 (CBPA11-v3, A-1155463 10000 nM).
